Measurements reported in PMC6826853.
These are yes or no findings as the source states them, for the method shown. For some of these results: Binding seen in cells or lysates may run through a third protein. Some binding calls cover weakened binding; strength is not graded here.

Sequences of proteins named here, by UniProt entry; tags and fusion partners are left off.
UniProt P40763: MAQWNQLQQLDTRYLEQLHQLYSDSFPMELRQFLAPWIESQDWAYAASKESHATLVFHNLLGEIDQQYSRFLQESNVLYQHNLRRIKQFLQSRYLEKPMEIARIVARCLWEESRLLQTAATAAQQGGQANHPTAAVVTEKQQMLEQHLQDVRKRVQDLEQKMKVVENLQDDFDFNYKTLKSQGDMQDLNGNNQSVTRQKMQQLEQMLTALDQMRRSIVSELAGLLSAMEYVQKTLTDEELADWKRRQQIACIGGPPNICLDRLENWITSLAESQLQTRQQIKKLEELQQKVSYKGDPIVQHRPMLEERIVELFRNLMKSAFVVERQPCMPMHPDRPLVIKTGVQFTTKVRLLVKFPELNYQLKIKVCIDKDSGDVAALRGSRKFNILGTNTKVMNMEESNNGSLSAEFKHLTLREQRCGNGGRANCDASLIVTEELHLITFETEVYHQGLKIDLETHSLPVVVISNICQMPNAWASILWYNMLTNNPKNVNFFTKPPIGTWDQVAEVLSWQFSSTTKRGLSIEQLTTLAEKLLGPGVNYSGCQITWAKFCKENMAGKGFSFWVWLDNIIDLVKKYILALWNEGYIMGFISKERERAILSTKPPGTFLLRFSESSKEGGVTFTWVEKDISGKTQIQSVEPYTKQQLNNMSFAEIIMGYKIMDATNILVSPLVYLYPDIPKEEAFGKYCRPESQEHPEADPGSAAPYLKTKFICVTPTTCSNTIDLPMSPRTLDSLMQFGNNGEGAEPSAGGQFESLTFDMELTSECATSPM
UniProt O60674: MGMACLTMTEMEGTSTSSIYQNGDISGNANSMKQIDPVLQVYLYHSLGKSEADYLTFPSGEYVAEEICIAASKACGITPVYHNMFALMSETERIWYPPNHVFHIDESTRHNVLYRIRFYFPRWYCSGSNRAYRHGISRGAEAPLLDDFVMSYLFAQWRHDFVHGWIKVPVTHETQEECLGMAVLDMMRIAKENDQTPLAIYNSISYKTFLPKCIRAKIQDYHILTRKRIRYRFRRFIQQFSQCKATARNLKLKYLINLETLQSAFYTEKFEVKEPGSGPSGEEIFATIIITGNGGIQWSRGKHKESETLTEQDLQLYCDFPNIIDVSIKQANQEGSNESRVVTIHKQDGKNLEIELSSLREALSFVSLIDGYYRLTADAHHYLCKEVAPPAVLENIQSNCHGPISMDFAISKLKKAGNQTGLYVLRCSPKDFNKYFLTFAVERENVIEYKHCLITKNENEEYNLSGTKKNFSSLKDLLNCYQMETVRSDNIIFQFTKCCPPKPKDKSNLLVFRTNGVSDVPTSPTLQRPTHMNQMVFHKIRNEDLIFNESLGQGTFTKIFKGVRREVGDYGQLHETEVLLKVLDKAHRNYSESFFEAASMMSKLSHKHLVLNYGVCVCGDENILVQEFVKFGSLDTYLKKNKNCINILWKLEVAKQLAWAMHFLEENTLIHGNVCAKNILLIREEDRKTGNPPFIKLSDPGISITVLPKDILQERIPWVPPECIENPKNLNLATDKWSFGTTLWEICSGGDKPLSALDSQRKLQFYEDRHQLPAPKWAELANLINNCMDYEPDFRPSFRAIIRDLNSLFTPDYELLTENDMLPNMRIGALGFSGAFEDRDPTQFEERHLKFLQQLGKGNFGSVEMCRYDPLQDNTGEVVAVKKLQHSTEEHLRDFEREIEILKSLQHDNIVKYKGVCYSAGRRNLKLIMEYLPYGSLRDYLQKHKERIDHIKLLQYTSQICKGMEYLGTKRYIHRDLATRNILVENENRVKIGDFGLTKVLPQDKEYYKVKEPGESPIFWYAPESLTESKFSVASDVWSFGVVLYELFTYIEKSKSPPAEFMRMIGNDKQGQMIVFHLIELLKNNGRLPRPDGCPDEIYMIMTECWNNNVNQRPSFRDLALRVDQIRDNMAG
UniProt Q13153: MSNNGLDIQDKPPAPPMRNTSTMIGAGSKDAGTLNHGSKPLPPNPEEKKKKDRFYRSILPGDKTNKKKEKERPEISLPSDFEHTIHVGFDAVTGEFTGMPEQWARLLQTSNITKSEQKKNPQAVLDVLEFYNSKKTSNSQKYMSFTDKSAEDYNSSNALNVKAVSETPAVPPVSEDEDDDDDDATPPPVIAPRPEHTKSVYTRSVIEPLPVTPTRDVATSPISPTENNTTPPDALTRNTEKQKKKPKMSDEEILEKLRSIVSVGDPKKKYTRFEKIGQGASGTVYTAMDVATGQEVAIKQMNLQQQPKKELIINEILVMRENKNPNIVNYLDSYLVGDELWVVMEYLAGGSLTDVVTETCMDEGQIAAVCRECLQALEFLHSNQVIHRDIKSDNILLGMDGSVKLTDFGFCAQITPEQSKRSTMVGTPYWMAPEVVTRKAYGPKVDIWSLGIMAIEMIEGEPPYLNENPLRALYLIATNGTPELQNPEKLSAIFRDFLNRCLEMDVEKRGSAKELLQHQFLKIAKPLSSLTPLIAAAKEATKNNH

Experiments:
[1] = biological target: signal transducer and activator of transcription 3 (Stat3) (human (endogenous in breast cancer cells)) (UniProt P40763); test: Re-ChIP (double chromatin immunoprecipitation); breast cancer cells fixed with 1% formaldehyde, sonicated; first ChIP with anti-pStat3/Stat3 or anti-PAK1 antibody, second ChIP with the other antibody; PCR of the IL-6 promoter region
[2] = biological target: signal transducer and activator of transcription 3 (Stat3) (human (endogenous in breast cancer cells)) (UniProt P40763); test: native gel or EMSA; supershift: mammosphere nuclear proteins incubated with PAK1 and pStat3 antibodies for 30 min before adding IRDye 800 Stat3 oligonucleotide, room temperature, nondenaturing 6% PAGE
[3] = biological target: signal transducer and activator of transcription 3 (Stat3) (human (endogenous in breast cancer cells)) (UniProt P40763); test: co-IP; endogenous proteins; total protein from breast cancer cells immunoprecipitated with anti-PAK1, anti-JAK2 or anti-Stat3 antibodies, then western blotting
[4] = biological target: Janus Kinase 2 (JAK2) (human (endogenous in breast cancer cells)) (UniProt O60674); test: as above

Measured: binding

p21-activated kinase (PAK1) (from UniProt Q13153 1-545)
binds: all assays above
